# Measurements published in US20080200387A1.
# Chains of the proteins cited; added tags and fusions are not shown. Lines headed by an entry give the natural chain unless they say otherwise; changes in a name come on top.
# UniProt P80746: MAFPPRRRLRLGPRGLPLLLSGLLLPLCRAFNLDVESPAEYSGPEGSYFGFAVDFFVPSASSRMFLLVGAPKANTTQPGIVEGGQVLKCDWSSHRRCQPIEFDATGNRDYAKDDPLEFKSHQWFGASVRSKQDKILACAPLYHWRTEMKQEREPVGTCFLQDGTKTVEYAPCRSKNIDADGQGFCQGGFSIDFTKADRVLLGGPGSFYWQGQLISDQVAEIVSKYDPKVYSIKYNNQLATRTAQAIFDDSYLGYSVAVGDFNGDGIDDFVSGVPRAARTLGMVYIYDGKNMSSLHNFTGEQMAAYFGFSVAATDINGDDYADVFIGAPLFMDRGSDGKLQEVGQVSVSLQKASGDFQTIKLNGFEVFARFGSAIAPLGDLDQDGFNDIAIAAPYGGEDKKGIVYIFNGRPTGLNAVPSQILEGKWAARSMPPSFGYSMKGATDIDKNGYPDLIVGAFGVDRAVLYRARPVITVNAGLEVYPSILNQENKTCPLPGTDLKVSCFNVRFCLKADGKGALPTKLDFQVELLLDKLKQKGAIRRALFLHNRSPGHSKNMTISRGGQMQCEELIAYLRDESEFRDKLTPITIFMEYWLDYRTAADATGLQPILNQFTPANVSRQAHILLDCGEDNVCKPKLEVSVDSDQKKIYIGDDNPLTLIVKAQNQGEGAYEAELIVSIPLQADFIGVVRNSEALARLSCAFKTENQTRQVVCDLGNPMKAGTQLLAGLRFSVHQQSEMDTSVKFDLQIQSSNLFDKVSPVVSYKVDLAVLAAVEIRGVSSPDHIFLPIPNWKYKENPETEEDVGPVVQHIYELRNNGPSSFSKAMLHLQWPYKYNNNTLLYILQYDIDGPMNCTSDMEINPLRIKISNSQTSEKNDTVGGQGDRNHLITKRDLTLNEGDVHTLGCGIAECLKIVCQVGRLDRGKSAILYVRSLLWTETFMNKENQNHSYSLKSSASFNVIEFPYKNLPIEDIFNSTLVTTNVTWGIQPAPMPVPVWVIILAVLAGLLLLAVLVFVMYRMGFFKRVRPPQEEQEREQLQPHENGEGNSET
# UniProt P00747: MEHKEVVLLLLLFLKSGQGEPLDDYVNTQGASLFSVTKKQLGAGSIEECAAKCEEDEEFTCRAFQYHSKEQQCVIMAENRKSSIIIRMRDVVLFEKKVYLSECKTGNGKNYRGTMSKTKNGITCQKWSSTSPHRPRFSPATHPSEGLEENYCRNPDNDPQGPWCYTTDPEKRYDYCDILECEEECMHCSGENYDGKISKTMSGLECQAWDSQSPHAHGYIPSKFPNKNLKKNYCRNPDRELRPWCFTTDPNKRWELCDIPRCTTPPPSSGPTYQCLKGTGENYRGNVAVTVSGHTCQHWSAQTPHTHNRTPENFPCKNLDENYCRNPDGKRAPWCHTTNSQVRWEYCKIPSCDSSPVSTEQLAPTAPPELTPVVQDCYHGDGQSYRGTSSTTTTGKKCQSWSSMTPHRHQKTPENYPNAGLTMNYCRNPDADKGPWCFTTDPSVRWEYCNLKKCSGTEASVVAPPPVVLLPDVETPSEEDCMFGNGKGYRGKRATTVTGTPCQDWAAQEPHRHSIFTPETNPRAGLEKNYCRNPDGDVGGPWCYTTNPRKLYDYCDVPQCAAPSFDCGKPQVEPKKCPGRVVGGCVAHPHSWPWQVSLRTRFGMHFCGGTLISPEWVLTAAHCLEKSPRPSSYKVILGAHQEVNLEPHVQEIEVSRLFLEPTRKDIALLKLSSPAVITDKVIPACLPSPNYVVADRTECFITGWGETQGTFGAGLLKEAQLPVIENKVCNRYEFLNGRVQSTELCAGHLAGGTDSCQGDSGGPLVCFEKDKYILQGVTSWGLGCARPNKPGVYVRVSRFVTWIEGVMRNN
# These are yes or no findings as the source states them, for the method shown. Some results given as binding are weak or reduced against the parent protein; the word gives no strength.
# Molecular target: integrin αvβ3 on bovine aortic endothelial cells (BAECs) (bovine) (UniProt P80746+A0AAA9TU76)
# Experiment: ELISA of biotin-labelled kringle protein on BAECs
substance,measurement,value
K1-5N289A/T346A/L532R (from UniProt P00747 97-562) (ligand),binding,binds
